Laboratory results published in PubChem BioAssay.
Inconclusive means that the source gave no clear call. Such entries were picked first, then a sample of the others. Activity calls are given as the source filed them.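 Rule for the calls, unless noted: active = thallium flux slope above the same plate's solvent-only control mean plus 3 SD; inconclusive = the two replicate wells disagree; inactive = no significant difference from solvent-only control wells.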

Amino acid sequences for entries named in this document (tags omitted). A change or cut given only in a name is not applied to a line headed by its entry.
UniProt Q9H2X9: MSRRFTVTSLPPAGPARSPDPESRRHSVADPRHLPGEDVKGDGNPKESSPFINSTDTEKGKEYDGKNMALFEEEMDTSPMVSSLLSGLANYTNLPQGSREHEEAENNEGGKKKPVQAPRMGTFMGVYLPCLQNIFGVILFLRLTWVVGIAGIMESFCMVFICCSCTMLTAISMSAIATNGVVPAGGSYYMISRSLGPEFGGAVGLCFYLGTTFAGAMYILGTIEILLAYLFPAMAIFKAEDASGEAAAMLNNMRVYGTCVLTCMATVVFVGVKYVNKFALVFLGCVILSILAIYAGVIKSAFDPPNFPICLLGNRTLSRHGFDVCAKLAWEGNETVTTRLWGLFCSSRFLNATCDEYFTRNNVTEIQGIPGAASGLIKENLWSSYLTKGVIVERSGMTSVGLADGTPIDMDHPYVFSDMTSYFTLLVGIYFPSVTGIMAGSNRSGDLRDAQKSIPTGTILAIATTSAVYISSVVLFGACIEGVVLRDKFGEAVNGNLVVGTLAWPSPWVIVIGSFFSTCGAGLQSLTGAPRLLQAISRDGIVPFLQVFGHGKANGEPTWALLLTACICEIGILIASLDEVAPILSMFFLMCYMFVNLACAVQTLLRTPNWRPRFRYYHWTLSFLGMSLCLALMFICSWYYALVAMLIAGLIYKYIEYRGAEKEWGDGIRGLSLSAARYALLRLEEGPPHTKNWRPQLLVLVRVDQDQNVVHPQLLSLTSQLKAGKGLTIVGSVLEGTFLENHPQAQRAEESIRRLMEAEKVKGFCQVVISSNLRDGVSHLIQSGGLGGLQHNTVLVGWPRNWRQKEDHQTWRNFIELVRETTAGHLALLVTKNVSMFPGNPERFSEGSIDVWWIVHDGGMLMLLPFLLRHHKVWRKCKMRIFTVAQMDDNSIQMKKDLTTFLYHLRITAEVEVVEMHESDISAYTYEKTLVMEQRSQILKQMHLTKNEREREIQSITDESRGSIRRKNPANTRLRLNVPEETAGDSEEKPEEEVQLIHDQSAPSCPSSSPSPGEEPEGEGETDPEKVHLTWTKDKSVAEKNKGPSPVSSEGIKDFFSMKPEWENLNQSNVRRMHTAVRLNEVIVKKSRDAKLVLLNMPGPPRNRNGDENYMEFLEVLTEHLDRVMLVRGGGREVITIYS

Assays:
[1] = molecular target: Solute carrier family 12 member 5 (Homo sapiens) (UniProt Q9H2X9); test: retest of KCC2 transport modulators without sodium – cell-based, HEK293 KCC2, thallium flux, secondary assay, confirmation (AID 1713); details: FluoZin2 fluorescence, at 10 µM, active compounds read high
Method in brief: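 Test system: KCC2-expressing HEK cells. Medium: Sodium-free N-methylglucamine chloride buffer. Schedule: dye loading 48 min. Technique: kinetic thallium-flux fluorescence imaging.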

[2] = compound effects on native HEK Tl+ uptake – HEK cells, counterscreen 1, counter-screen for KCC2 modulator project, confirmation (AID 1716;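 active = thallium flux rate significantly above the same plate's solvent-only control wells, beyond their mean plus 3 SD; inconclusive = the two replicate wells gave conflicting results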); details: HEK293 parental cells, thallium flux FluoZin2, ouabain; at 10 µM; baseline-ratio fluorescence slope, 10–20 s after thallium
[3] = native HEK Tl+ uptake effects, second counter-screen – HEK cells, counterscreen 2, counter-screen for KCC2 modulator project, confirmation (AID 1718;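 active = thallium flux slope above the same plate's solvent-control mean plus 3 SD in both duplicate wells; inconclusive = duplicate wells that disagreed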;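 note: run without ouabain in cells lacking the KCC2 cotransporter; slope of fluorescence scaled to its starting value between 10 and 20 s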); details: HEK293 parental, thallium flux FluoZin-2 fluorescence slope; at 10 µM
Method in brief: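 Read-out: thallium influx rate; assay system: parental HEK cells; replication: slope calculated separately for each replicate well; signal: FluoZin2-AM fluorescence (0.5 µM), ex 480 nm, em 540 nm, kinetic 1 Hz; benchmarks: bumetanide 2 mM; schedule: overnight cell culture at 37 °C, 48 min dye loading, compound before thallium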

[4] = molecular target: Solute carrier family 12 member 5 (Homo sapiens) (UniProt Q9H2X9); test: modulation of KCC2 thallium flux in HEK cells – cell-based, ouabain, retest, confirmation (AID 1717;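 active = thallium flux slope beyond 3 SD from same-plate DMSO control mean in most replicates, usually higher, sometimes lower; inconclusive = repeat tests gave conflicting results; inactive = no significant difference from controls in most replicates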;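 note: slope of initial-normalized fluorescence between seconds 10 and 20 after thallium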); details: HEK293-KCC2, thallium flux FluoZin2 fluorescence, at 10 µM, bidirectional: low = inhibitor, high = activator

Row | Compound | normalised thallium flux (F/F0 slope) [1] | thallium flux rate (normalised fluorescence) [2] | thallium flux slope [3] | raw Tl+ flux slope (below DMSO = inhibition, above = activation) [4]
1 | COc1ccc(/C=N/NC(=S)SC)cc1OC | inconclusive: 0.00732 | active: 0.0535 | active: 0.0553 | –
2 | COCCNC(=S)N/N=C(\C)c1ccc(Cl)c(Cl)c1 | inconclusive: 0.0121 | inconclusive: 0.0203 | inconclusive: 0.0145 | active: 0.0295
3 | CCOC(=O)CC1Sc2ccccc2NC1=S (configuration not stated) | inactive: 0.0109 | inconclusive: 0.0161 | inconclusive: 0.0137 | –
4 | Cc1ncoc1C(=O)N1CCCC(C(=O)c2ccc(-c3ccccc3)cc2)C1 (configuration not stated) | inconclusive: 0.00637 | inactive: 0.00654 | inconclusive: 0.0107 | –
5 | O=c1c2cc(Br)ccc2[nH]c(=S)n1Cc1cccnc1 | inconclusive: 0.0118 | – | – | inactive: 0.0288
6 | CCn1c(NN)nc2sc3c(c2c1=O)CCC3 | active: 0.014 | active: 0.0178 | inconclusive: 0.0129 | active: 0.0304
7 | O=C(COc1cccc2cccnc12)Nc1ccccc1N1CCOCC1 | inconclusive: 0.0181 | active: 0.00503 | inconclusive: 0.00794 | –
8 | O=C(O)CSc1nc2c(cnn2-c2ccccc2)c(=O)n1-c1ccc(Br)cc1 | inactive: 0.00549 | inconclusive: 0.00636 | inactive: 0.00969 | –
9 | O=C(Cc1csc(Nc2nc(=S)[nH]c3ccccc23)n1)NCCCN1CCN(c2cccc(Cl)c2)CC1 | active: 0.0134 | inconclusive: 0.0293 | active: 0.0172 | –
10 | O=C(CCSc1ccccc1)NCCSCc1ccccc1 | inconclusive: 0.00406 | inconclusive: 0.00665 | inconclusive: 0.00952 | –
11 | CC(=O)Nc1ccc(S(=O)(=O)Nc2c(C)nn(-c3ccccc3)c2C)cc1 | inactive: 0.00668 | inconclusive: 0.00623 | inactive: 0.00897 | inactive: 0.0162
12 | CCOc1ccc2nc(SC3CC(=O)N(c4cccc(OC)c4)C3=O)sc2c1 (configuration not stated) | active: 0.0238 | active: 0.00929 | inconclusive: 0.0109 | –
13 | O=C(Nc1ccccc1F)C1C2C=CC3(O2)C1C(=O)N(c1cccnc1)C3C(=O)NC1CCCCC1 (configuration not stated) | inconclusive: 0.00483 | inconclusive: 0.00857 | inactive: 0.0108 | active: 0.0131
14 | O=[N+]([O-])c1ccc(Sc2cccc3cccnc23)c([N+](=O)[O-])c1 | active: 0.0152 | inconclusive: 0.016 | inactive: 0.0129 | –
15 | COC(=O)[C@@H](NC(=O)O[C@@H]1C(=O)c2cc(Br)ccc2O[C@H]1c1cccc(OC)c1)C(C)C | inactive: 0.00635 | active: 0.0148 | inconclusive: 0.0116 | inconclusive: 0.0244
16 | Cc1cccc(-c2nnc(NC(=O)c3ccc(Cl)cc3)o2)c1 | active: 0.0704 | inconclusive: 0.0579 | active: 0.0716 | active: 0.121
17 | CCn1c(-c2ccccc2)c(C(=O)CCl)c2ccccc21 | inactive: 0.0055 | active: 0.00488 | active: 0.00796 | active: 0.0166
18 | Cn1c(NC(=S)Nc2ccccc2)nc2ccccc21 | inconclusive: 0.013 | – | – | active: 0.0426
19 | O=C(OCn1ncc(Cl)c(Cl)c1=O)c1ccccc1Cl | inactive: 0.00851 | inconclusive: 0.00666 | inactive: 0.0109 | –
20 | CCOC(=O)c1c(C)[nH]c(C)c1C(=O)CSc1nc2ccccc2c(=O)n1-c1ccc(CC)cc1 | inactive: 0.00988 | inconclusive: 0.00862 | inconclusive: 0.0113 | inactive: 0.0238
21 | O=C(CSc1nc2cc(Cl)ccc2c(=O)n1Cc1ccco1)Nc1ccc(S(=O)(=O)N2CCOCC2)cc1 | inactive: 0.00735 | active: 0.0185 | active: 0.0152 | inconclusive: 0.0237
22 | O=C(CNC(=O)c1cccs1)NC1=NCCS1 | inactive: 0.00573 | inactive: 0.00799 | inactive: 0.011 | inactive: 0.0191
23 | Cn1cc(/C=C2\SC(=O)NC2=S)c2ccccc21 | active: 0.013 | active: 0.0178 | inconclusive: 0.0106 | –
24 | CS(=O)(=O)N(CC(=O)N1CCN(c2ccc(F)cc2)CC1)c1ccc(F)c(Cl)c1 | inconclusive: 0.0115 | – | – | active: 0.0163
25 | S=c1[nH]nc(-c2cccc(Cl)c2)n1Cc1ccccc1 | active: 0.0148 | inconclusive: 0.0191 | inconclusive: 0.0129 | –

Some of the entries so far, comma-delimited.
Row,Compound,normalised thallium flux (F/F0 slope) [1],thallium flux rate (normalised fluorescence) [2],thallium flux slope [3],"raw Tl+ flux slope (below DMSO = inhibition, above = activation) [4]"
9,O=C(Cc1csc(Nc2nc(=S)[nH]c3ccccc23)n1)NCCCN1CCN(c2cccc(Cl)c2)CC1,active: 0.0134,inconclusive: 0.0293,active: 0.0172,–
10,O=C(CCSc1ccccc1)NCCSCc1ccccc1,inconclusive: 0.00406,inconclusive: 0.00665,inconclusive: 0.00952,–
